The target in assay [1] is GluN1Rluc expressed without GluN2 (human) (UniProt Q05586). Briefly: FRET or BRET; BRET^1 saturation in HEK-293T cells: constant GluN1Rluc cDNA (0.3 ug) without GluN2, increasing cDNA of the YFP-fused calcium sensor.
For assay [2], the target named is NMDAR reconstituted from GluN1Rluc and GluN2B (human) (UniProt Q05586+Q13224). Briefly: FRET or BRET; BRET^1 saturation in HEK-293T cells: constant GluN1-RLuc and GluN2B cDNA, increasing cDNA of the YFP-fused calcium sensor; 5 uM coelenterazine H; 48 h after transfection.

Sequences of proteins named here, by UniProt entry; tags and fusion partners are left off.
UniProt Q9NZU7: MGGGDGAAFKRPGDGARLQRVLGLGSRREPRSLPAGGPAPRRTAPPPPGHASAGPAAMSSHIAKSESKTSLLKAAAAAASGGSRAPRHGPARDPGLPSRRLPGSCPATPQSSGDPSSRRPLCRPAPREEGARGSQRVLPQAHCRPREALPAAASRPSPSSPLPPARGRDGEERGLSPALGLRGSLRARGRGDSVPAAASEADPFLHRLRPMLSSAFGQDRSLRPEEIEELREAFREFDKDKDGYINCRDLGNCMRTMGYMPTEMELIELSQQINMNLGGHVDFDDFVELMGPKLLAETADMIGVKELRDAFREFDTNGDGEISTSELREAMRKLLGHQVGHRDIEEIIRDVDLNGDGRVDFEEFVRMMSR

No constants are given. Whether binding was seen depends on the method and setting. In cells and extracts the contact can be indirect.

Consider “caldendrinYFP fusion protein (from UniProt Q9NZU7 1-370)”, for which the binding entry in assay [1] and in assay [2] was “no binding” throughout.

(Values after PMC6127644.)
